One test concerns the target factor XIa (UniProt P03951). Kind of test: chromogenic protease inhibition test in buffer.
The next test concerns the target T1, factor XIIa (UniProt P00748 20-615, limits assumed).
T1 construct: also called fXIIa
T1 sequence (looked up): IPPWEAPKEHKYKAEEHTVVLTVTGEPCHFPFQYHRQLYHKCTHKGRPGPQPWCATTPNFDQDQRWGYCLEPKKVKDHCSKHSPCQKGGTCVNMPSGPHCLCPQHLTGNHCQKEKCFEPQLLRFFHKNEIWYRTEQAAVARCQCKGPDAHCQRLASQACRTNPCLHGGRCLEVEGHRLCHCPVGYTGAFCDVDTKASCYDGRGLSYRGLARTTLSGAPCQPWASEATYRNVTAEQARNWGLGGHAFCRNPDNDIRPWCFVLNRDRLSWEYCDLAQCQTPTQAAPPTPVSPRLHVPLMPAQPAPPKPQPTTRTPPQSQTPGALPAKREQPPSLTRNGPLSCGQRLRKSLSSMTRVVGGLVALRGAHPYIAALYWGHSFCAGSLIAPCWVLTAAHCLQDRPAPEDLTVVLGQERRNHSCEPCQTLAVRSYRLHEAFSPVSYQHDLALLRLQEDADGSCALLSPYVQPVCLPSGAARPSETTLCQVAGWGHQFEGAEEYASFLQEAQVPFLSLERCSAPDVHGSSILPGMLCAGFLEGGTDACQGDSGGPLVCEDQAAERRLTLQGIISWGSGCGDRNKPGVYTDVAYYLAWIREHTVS
Kind of test: chromogenic protease inhibition test in buffer.

Amino acid sequences for entries named in this document (tags omitted). Residues count along the entry.
UniProt P03951, residues 19-625: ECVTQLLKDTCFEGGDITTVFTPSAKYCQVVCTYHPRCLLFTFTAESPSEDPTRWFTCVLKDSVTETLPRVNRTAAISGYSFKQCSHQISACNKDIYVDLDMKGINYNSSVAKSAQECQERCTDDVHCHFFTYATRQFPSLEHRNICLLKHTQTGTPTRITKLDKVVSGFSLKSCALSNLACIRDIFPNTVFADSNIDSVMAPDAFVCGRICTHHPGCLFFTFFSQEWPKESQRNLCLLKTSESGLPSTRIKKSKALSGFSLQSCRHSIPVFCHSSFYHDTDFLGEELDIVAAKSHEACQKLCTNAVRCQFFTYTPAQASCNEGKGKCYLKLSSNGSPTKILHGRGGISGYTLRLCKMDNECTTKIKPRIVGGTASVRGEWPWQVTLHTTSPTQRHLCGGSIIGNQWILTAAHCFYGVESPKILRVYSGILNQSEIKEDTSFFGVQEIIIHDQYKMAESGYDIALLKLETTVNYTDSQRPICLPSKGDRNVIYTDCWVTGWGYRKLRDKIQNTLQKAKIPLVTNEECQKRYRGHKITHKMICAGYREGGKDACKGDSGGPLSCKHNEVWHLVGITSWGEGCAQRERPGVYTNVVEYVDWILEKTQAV

Results are given in words; binding and its absence hold for the method and conditions named. Some results given as binding are weak or reduced against the parent protein; the word gives no strength.

B1: corn trypsin inhibitor (other, UniProt P01088 29-138, looked up)
chain: SAGTSCVPGWAIPHNPLPSCRWYVTSRTCGIGPRLPWPELKRRCCRELADIPAYCRCTALSILMDGAIPPGPDAQLEGRLEDLPGCPREVQRGFAATLVTEAECNLATIS
notes: Isolated from corn; also called CTI
For B1, the binding entry with factor XIa and with factor XIIa was “binds” each time.

The record behind these values is US10006080B2, “High-selectivity contact activation inhibitor based on infestin-4” (OBSCHESTVO S OGRANICHENNOY OTVETSTVENNOSTYU …, priority 2013, dated 2018).
